Experimental findings from publication doi:10.1101/2022.09.29.510157 are described below.

Protein sequences, listed by entry. Tags and fused reporters are not part of them. Lines headed by an entry give the natural chain unless they say otherwise; changes in a name come on top.
UniProt Q32KN8: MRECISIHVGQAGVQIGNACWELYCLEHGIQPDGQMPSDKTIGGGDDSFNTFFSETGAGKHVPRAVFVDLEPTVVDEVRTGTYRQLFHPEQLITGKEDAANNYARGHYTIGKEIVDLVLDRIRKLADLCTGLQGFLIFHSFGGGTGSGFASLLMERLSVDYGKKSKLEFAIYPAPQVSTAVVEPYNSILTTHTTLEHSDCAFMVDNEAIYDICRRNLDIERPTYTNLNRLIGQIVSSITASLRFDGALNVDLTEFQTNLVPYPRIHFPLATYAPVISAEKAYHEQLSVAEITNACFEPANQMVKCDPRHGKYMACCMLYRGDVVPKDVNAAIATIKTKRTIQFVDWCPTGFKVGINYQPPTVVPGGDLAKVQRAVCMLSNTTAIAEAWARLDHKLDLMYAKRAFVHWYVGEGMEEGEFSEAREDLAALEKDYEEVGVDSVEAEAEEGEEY
UniProt Q3MHM5: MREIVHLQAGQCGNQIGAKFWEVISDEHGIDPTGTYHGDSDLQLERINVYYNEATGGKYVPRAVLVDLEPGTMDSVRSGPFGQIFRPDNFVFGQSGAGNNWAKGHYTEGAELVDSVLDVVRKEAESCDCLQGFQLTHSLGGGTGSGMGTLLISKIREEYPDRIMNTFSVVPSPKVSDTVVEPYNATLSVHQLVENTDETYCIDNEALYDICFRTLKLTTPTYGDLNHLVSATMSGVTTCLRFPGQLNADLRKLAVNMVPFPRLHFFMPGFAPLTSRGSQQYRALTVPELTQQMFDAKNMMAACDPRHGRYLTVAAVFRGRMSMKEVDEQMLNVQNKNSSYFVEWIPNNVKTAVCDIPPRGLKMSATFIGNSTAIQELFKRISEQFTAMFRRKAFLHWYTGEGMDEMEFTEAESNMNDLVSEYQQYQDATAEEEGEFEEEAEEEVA
UniProt Q32KP0: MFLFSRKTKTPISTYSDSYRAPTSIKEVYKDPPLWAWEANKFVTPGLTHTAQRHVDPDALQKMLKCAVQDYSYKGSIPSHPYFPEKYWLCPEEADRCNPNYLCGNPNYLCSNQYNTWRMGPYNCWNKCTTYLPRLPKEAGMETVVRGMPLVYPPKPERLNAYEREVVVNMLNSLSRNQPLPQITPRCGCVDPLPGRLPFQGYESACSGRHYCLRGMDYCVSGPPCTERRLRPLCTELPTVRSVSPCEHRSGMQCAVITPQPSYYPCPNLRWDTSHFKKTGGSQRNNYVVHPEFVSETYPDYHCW

No constants are given. Whether binding was seen depends on the method and setting. A result given as binding can be weak or reduced; the word gives no strength.

Common to all, as to experiment: cryo-EM structure
Experiment [1] has as its target T1, MNS1 (bovine (endogenous in bovine sperm)) (UniProt Q2KIQ2).
T1 sequence: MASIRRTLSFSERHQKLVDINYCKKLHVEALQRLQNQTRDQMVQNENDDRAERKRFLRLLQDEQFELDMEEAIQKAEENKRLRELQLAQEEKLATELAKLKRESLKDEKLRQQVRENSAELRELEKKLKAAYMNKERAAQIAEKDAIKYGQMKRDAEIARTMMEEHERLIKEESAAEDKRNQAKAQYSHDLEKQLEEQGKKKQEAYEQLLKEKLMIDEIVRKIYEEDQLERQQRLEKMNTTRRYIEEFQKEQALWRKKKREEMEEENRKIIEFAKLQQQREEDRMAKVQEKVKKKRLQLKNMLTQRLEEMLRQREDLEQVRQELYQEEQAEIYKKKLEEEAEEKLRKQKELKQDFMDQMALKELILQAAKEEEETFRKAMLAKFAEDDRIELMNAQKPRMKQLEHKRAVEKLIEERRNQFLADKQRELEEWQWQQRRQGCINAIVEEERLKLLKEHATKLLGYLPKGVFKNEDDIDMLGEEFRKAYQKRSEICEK

For experiment [2], the target named is T2, Tektin-5 (bovine (endogenous in bovine sperm)) (UniProt Q2YDI7).
T2 sequence: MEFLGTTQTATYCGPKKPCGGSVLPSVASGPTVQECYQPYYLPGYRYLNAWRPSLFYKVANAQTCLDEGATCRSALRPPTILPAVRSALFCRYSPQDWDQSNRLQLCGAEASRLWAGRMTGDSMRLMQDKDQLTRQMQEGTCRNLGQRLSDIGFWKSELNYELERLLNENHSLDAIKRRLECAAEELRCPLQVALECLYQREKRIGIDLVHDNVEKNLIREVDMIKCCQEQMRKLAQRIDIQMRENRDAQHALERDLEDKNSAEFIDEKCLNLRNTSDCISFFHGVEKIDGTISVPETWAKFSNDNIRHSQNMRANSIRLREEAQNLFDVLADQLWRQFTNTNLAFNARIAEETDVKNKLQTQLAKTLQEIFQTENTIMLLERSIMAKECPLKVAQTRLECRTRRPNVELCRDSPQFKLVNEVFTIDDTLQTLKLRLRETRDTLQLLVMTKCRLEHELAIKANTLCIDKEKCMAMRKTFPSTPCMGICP

The target of experiment [3] is α-tubulin (TUBA3) (bovine (endogenous in bovine sperm)) (UniProt Q32KN8).
The target in experiment [4] is T3, Tektin-1 (bovine (endogenous in bovine sperm)) (UniProt Q32KZ9).
T3 sequence: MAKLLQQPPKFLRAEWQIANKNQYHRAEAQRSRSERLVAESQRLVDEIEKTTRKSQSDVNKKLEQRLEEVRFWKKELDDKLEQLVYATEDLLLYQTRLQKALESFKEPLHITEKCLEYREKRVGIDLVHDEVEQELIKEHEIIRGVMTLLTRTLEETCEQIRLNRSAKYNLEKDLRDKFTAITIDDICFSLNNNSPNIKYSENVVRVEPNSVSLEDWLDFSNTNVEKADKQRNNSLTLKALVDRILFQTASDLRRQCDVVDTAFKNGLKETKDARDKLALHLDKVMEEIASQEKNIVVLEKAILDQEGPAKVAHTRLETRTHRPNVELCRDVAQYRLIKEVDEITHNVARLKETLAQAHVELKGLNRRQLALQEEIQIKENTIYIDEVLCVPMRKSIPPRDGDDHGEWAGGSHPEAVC

In experiment [5] the target is β-tubulin (TUBB4B) (bovine (endogenous in bovine sperm)) (UniProt Q3MHM5).
The target of experiment [6] is T4, Tektin-4 (bovine (endogenous in bovine sperm)) (UniProt Q2TA38).
T4 sequence: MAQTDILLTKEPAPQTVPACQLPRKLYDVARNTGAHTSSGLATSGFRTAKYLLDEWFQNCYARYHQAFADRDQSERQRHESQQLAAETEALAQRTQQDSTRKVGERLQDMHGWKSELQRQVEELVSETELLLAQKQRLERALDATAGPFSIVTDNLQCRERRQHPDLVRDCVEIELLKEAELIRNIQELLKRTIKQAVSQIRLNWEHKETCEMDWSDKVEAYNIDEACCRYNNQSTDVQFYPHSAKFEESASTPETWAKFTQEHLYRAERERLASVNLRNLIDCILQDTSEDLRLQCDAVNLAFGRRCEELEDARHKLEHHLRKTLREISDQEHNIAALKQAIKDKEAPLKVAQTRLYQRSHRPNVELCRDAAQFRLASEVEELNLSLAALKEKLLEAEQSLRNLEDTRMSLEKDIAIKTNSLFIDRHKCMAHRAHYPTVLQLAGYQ

Experiment [7] has as its target T5, TEKTIP (bovine (endogenous in bovine sperm)) (UniProt Q2M2T2).
T5 sequence: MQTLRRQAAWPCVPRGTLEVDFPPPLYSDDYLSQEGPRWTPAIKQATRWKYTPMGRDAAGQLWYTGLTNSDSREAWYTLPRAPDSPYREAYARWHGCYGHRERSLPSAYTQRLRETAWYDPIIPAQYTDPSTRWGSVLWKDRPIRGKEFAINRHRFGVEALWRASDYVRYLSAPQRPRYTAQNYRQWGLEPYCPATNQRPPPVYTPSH

Turning to “C7ORF31 (bovine (endogenous in bovine sperm))”, the binding entry in experiment [1] and in experiment [2] was “binds” throughout.

With “PPP1R32 (protein phosphatase 1 regulatory subunit 32) (from UniProt A0A3Q1M7R5)”, the binding entry in experiment [3], in experiment [4] and in experiment [5] was “binds” throughout.

On to “SMRP1 (spermatid-specific manchette-related protein 1) (from UniProt Q32KP0)”, for which the binding entry in experiment [6] and in experiment [7] was “binds” throughout.

Regarding “tubulin-and tektin-bridging protein (TTBP) (from UniProt A0A3Q1M4T9)”, in experiment [6], the binding entry is “binds”.
